Measurements taken from PubChem BioAssay AID2685 (National Center for Advancing Translational Sciences (NCATS), 2010).
This is one part of the list. Further columns of the screen follow, without active or inactive calls. Compounds called inactive in the main read-out are mostly missing here. Potencies come from curve fits of mixed quality, noted in brackets.

Experiment: qHTS Assay for Lipid Storage Modulators in Drosophila S3 Cells;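 as to cell number change: cells counted by Cell Tracker Red CMTPX staining in the red channel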
Settings: BODIPY lipid droplet fluorescence, 18-24 h; for cell number change: measured here: cell count max response, cells fed with added oleic acid
In short: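 Laser-scanning cytometry quantifies lipid droplet accumulation (500–530 nm total intensity; droplet/cell object ratio) in oleic acid-fed (400 uM added) Drosophila S3 cells treated with a concentration series. 20 uM Triacsin C defined 100% inhibition.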

[1] = measured here: lipid fluorescence (Fed channel) AC50, cells fed with added oleic acid
[2] = measured here: cell number channel AC50, cells fed with added oleic acid

| SMILES | cell number change [%] | AC50 [1] | AC50 [2] |
| --- | --- | --- | --- |
| O=C(NCc1ccc(F)cc1)c1cc(S(=O)(=O)N2CCCCC2)ccc1Cl | 4.79 | 29.1 µM [falling, single point] |  |
| CCCC1(C(=O)OC)NC(c2ccc(OC)cc2OC)C2C(=O)N(c3cccc(C(C)=O)c3)C(=O)C21 (stereo not given) | -9.94 | 29.1 µM [rising, single point] |  |
| CCCC1=NN2C(=N)/C(=C\c3ccc(SCc4ccco4)o3)C(=O)N=C2S1 | 16.3 |  |  |
| Cc1nc2c(cnn2-c2ccccc2)c(=O)n1/N=C/c1ccccc1 | 14.5 | 0.13 µM [rising, full curve, poor fit] |  |
| O=C(OCCN1CCOCC1)c1ccc(OCCN2CCOCC2)cc1 | 22.9 | 7.31 µM [falling, single point] |  |
| CCOC(=O)C(=NCC1CCCO1)NNc1cc(Cl)ccc1Cl (stereo not given) | -0.0735 |  |  |
| O=C(CCC(=O)CCN1CCCCC1)CCN1CCCCC1 | -18.2 | 4.61 µM [falling, single point] |  |
| O=Cc1ccc(-n2cncn2)cc1 | -2.04 | 0.82 µM [falling, single point] |  |
| Cc1ccc(-n2c(SCC(=O)NCc3ccco3)nc3nc4c(cc3c2=O)COC(C)(C)C4)cc1 | 6.53 | 8.2 µM [rising, partial curve] |  |
| O=C(Nc1ccc(NC(=O)C2CC2)nc1)c1cccnc1 | 70.1 | 4.11 µM [rising, single point] | 16.4 µM [rising, partial curve] |
| Cc1cccnc1NC(=O)c1cccc(S(=O)(=O)N2CCN(c3ccc(F)cc3)CC2)c1 | 8.22 |  |  |
| O=C1CN(C(=O)COC(=O)CNC(=O)c2ccc(Br)o2)c2ccccc2N1 | 63.7 | 5.8 µM [falling, single point] | 32.6 µM [rising, single point] |
| COC(=O)c1c(C)[nH]c(C(=O)OCC(=O)NCC(C)C)c1C | -3.55 | 0.731 µM [rising, full curve, poor fit] |  |
| COc1cc2c(cc1OC)n(CC(=O)NC1CCCCCC1)n1c(C)cc(=O)nc21 |  | 6.51 µM [falling, single point] |  |
| Cc1ccc(F)c(Cn2cnc3c(cnn3C(C)(C)C)c2=O)c1Cl | -30.8 | 32.6 µM [falling, single point] | 0.00411 µM [falling, full curve, poor fit] |
| CCNc1nc(C)c(CN(C(C)=O)c2ccccc2)nc1C#N | 14.5 | 1.16 µM [rising, full curve, poor fit] |  |
| COc1ccc(NC(=O)Cc2nnc(SCC(=O)Nc3ccc(F)cc3)n2C)cc1 | 9.83 | 18.4 µM [rising, single point] |  |
| O=C(CCn1cnnn1)N1CCCC(Nc2ccc(F)c(F)c2)C1 (stereo not given) | 18.5 | 4.11 µM [rising, full curve] |  |
| Cc1cc(C)c(OCC(=O)OC(C)C(=O)NCc2ccccc2)c(C)c1 (stereo not given) | -16.5 |  |  |
| Cc1ccsc1C(=O)NCC(C)(C)N1CCOCC1 | -19.7 |  |  |

| SMILES | cell number change [%] | AC50 [1] | AC50 [2] |
| --- | --- | --- | --- |
| Cc1ccc(-c2nnc(NC(=O)C3=COCCO3)o2)c(C)c1 | 69.9 |  | 16.4 µM [rising, partial curve, poor fit] |
| CCOC(=O)N1CCN(C(=O)c2ccc3nc4ccc(Cl)cc4c(=O)n3c2)CC1 |  | 6.51 µM [rising, single point] |  |
| CC(C)CC(C(=O)NC1CCCCC1)N(Cc1cccs1)C(=O)c1snc(C(N)=O)c1N (stereo not given) | 121 | 5.8 µM [rising, full curve] | 10.3 µM [rising, partial curve] |
| COc1ccc(/C=N/NC(=O)c2cccnc2)cc1CN1CCOCC1 | 8.64 |  | 2.06 µM [rising, partial curve, poor fit] |
| Cc1ccc(NC(=O)C2C3C=CC4(O3)C2C(=O)N(CCCN2CCCC2)C4C(=O)NC2CCCCC2)cc1Cl (stereo not given) | 30.2 | 23.1 µM [rising, partial curve, poor fit] |  |
| CCn1c(SCC(=O)N(C)CCC#N)nc2cc(S(=O)(=O)N3CCOCC3)ccc21 | 2 |  |  |
| CC(C)(C)OC(=O)CC[C@@H](C(=O)N1CCN(C(=O)OC(C)(C)C)CC1)n1cc(C(CO)NC(=O)OC(C)(C)C)nn1 (stereo not given in full) | -29.6 |  |  |
| O=C(CN1C(=O)/C(=C/c2cccc(Br)c2)SC1=S)N1CCCC1 | 44.2 | 29.1 µM [rising, single point] | 29.1 µM [rising, single point] |
| O=C(C(=O)N1CCc2ccccc2C1)N1CCc2ccccc2C1 | 36 | 0.92 µM [falling, full curve, poor fit] | 3.66 µM [rising, full curve] |
| O=C(Cn1c(=O)sc2ccccc21)N1CCOCC1 | 9.49 | 0.00731 µM [falling, full curve] |  |
| CCCCSc1nnc(C)c(=O)[nH]1 | 10.2 | 6.51 µM [rising, single point] |  |
| CC(NC(=O)NCCCn1ccnc1)(C(F)(F)F)C(F)(F)F |  |  | 0.92 µM [rising, full curve] |
| CN(C)S(=O)(=O)c1ccc(C(=O)NCC2(N3CCCCC3)CCCCC2)cc1 | 23.4 |  | 2.06 µM [falling, partial curve, poor fit] |
| CCCCn1nc2cc(C(=O)NC3CCc4ccccc43)ccc2c1OCC (stereo not given) | 5.85 | 23.1 µM [rising, single point] | 0.731 µM [rising, full curve] |
| Cc1ccccc1Nc1nc(N)nc(CN(C)Cc2ccccc2Cl)n1 | -18.6 | 2.06 µM [rising, full curve] |  |
| CCOC(=O)C1CCN(c2c(NCCCN(CC)Cc3ccccc3)c(=O)c2=O)CC1 | -20.7 | 6.51 µM [falling, single point] |  |
| N#C/C(=C\c1ccc(C#N)cc1)C(=O)c1ccccc1 | -47.6 | 6.51 µM [falling, partial curve] | 4.61 µM [falling, partial curve] |
| c1ccc(-n2c(Sc3cnccn3)nnc2-c2cccs2)cc1 |  | 0.517 µM [rising, partial curve, poor fit] |  |
| COc1ccccc1/C=C/CN1CCN(c2ccccc2)CC1 | 89.9 |  | 23.1 µM [rising, single point] |
| COC(=O)c1ccc(NC(=O)CSc2nc(C)cc(=O)[nH]2)cc1 |  | 1.84 µM [falling, partial curve] | 0.82 µM [falling, full curve, poor fit] |

Entries shown so far containing bromine:

| SMILES | cell number change [%] | AC50 [1] | AC50 [2] |
| --- | --- | --- | --- |
| O=C1CN(C(=O)COC(=O)CNC(=O)c2ccc(Br)o2)c2ccccc2N1 | 63.7 | 5.8 µM [falling, single point] | 32.6 µM [rising, single point] |
| O=C(CN1C(=O)/C(=C/c2cccc(Br)c2)SC1=S)N1CCCC1 | 44.2 | 29.1 µM [rising, single point] | 29.1 µM [rising, single point] |

Additional structures

| SMILES | cell number change [%] | AC50 [1] | AC50 [2] |
| --- | --- | --- | --- |
| CCCc1ccc(OC(=O)c2cccs2)cc1 | -14.8 |  |  |
| O=C(CSc1nnc(-c2ccccc2O)n1Cc1ccccc1)NNC(=O)c1ccccc1O | -36.2 | 29.1 µM [falling, single point] | 14.6 µM [falling, single point] |
| CC(C)Nc1nc(NC(C)C)nc(N(C#N)CCOc2ccc(Cl)cc2Cl)n1 | -17 | 20.6 µM [falling, single point] |  |
| O=C(Nc1ccc(Br)cc1)N1CCCCCCC1 | 4.5 |  | 0.146 µM [falling, full curve, poor fit] |
| C[C@H](NC(=O)C1CC(=O)N(c2ccc(F)cc2)C1)C(=O)N1CCCCC1 (stereo not given in full) | -16.2 | 0.411 µM [rising, single point] | 2.31 µM [rising, partial curve, poor fit] |
| Cc1ccc(N2C(=O)N3[C@H](c4ccc(F)cc4)[C@@H]4C(=O)N(C5CCCCC5)C(=O)[C@@H]4[C@]3(C)C2=O)cc1 | 0.647 | 7.31 µM [rising, partial curve] |  |
| O=C(Cc1ccc(F)cc1)OCN1C(=O)c2ccccc2C1=O | 13.5 | 29.1 µM [falling, single point] |  |
| COc1ccccc1CNC(=O)[C@@H]1CCCN1C(=O)[C@@H]1Cc2ccccc2CN1C(=O)OC(C)(C)C | 8.02 | 0.58 µM [falling, single point] |  |
| Cc1cc(C)cc(C(=O)NC(CC(N)=O)c2ccc(N3CCC(Cc4ccccc4)CC3)c([N+](=O)[O-])c2)c1 (stereo not given) | 12 | 29.1 µM [falling, single point] |  |
| O=S1(=O)c2cccc3cccc(c23)N1Cc1nnc(-c2ccccc2Br)o1 | -8.96 |  |  |
| COc1ccc(OC)c(-c2csc(N(C)C(=O)Cc3ccccc3)n2)c1 | -10.9 | 0.411 µM [falling, full curve, poor fit] |  |
| Fc1cccc(CCN2CCNC[C@@H]2CC2CCCCC2)c1 | 17.4 | 1.03 µM [falling, single point] | 1.16 µM [falling, single point] |
| C/C(=N\NC(=S)NCCc1ccccc1)c1cccc(Br)c1 | 10.7 | 17.8 µM [rising, single point] |  |
| CCOc1ccc(-n2ccnc(SCC(=O)Nc3ccc(OC)cc3OC)c2=O)cc1 | 65.3 |  | 1.16 µM [rising, partial curve] |
| CCCCNc1nnc(SCC(=O)c2c[nH]c3ccccc23)s1 | -38.5 | 18.4 µM [rising, single point] |  |
| CC1CC(N(C(=O)c2ccc(Cl)cc2)c2ccccc2)c2ccccc2N1C(=O)c1ccco1 (stereo not given) |  | 0.58 µM [falling, single point] | 0.651 µM [falling, single point] |
| COc1ccc(OC)c(CCNC(=O)CS(=O)(=O)Cc2nc(-c3ccc(C)cc3)oc2C)c1 | 21.2 | 23.1 µM [rising, single point] |  |
| O=C(NCc1ccccn1)c1ccc(OC2CCN(Cc3ccc(Cl)s3)CC2)cc1 | 0.567 | 3.26 µM [rising, partial curve] | 6.51 µM [rising, partial curve, poor fit] |
